Results on 1 substance are retold here after PMC10372912, “Evidence for direct interaction between the oncogenic proteins E6 and E7 of high-risk human papillomavirus (HPV)” (The Journal of Biological Chemistry, 2023).

Protein sequences, listed by entry. Tags and fused reporters are not part of them.
UniProt P03129: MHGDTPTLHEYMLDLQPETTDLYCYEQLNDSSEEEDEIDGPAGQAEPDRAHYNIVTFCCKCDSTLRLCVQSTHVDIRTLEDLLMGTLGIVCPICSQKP
UniProt P03126: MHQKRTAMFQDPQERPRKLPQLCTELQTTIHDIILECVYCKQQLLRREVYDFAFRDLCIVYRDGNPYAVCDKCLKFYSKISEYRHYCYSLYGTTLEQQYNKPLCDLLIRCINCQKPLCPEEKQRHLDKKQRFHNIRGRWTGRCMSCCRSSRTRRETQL

Results are given in words; binding and its absence hold for the method and conditions named. Binding seen in cells or lysates may run through a third protein. Some binding calls cover weakened binding; strength is not graded here.

For this test, the target named is 3xHA-16E7 (human papillomavirus type 16) (UniProt P03129). Briefly: co-IP; lysates of C33A cells coexpressing 3xHA-E7 and untagged E6, 1 μM MG-132 for 16 h before harvest; anti-HA microbeads, 2 h at 4-8 °C, five washes with lysis buffer (50 mM Hepes pH 7.5, 150 mM NaCl, 0.1% NP-40), native elution with 3xHA peptide; immunoblot.

As for “untagged HPV16 E6 (from UniProt P03126 1-158)”, the binding entry is on record as “binds”.
